The structures appear in SMILES notation. Some of the results follow. Repeats are few or missing, and single values can be far off.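 Cells were imaged in 1,536-well plates, and nuclei stained with an antibody against cleaved PARP were counted against all DNA-stained nuclei to give the apoptosis fraction. Screening doses were chosen to leave most cells alive, and resting and induced cleaved-PARP levels differ strongly between cell lines.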

In the experiment the test system is CBRC008 (line from a melanoma biopsy). Nature of the experiment: cleaved PARP positive nuclei fraction relative to DMSO control; melanoma cells; higher = more apoptosis. As to conditions: library dose: low library concentration; 72 h.
`COc1ccc(C2=N[C@@H](c3ccc(Cl)cc3)[C@@H](c3ccc(Cl)cc3)N2C(=O)N2CCNC(=O)C2)c(OC(C)C)c1` [Nutlin-3] + Cn1cc(/C=C2\C(=O)Nc3cccnc32)c2ccccc21 [GW441756] (first compound 0.1 µM, partner dose 0.4 µM): the “cleaved PARP positive nuclei fraction” value came to 44.8%.
`COc1ccc(C2=N[C@@H](c3ccc(Cl)cc3)[C@@H](c3ccc(Cl)cc3)N2C(=O)N2CCNC(=O)C2)c(OC(C)C)c1` [Nutlin-3] + COc1ccc(COc2ccc(Cc3cnc(N)nc3N)cc2OC)cc1 [GW2580] (first compound 0.1 µM, partner dose 1 µM): the “cleaved PARP positive nuclei fraction” value is 139%.
Take `C[C@@H](N)c1ccc(C(=O)Nc2ccnc3[nH]ccc23)cc1` + O=C1NC(=O)/C(=C/c2ccc(-c3ccc(F)cc3O)o2)S1 [AS252424] (first compound 0.4 µM, partner dose 1 µM): the “cleaved PARP positive nuclei fraction” value is 92.7%.
The figure for `C[C@]1(O)C[C@@H](c2nc(-c3ccc4ccc(-c5ccccc5)nc4c3)c3c(N)nccn32)C1` + Oc1cc(-c2nc(-c3ccccc3)[nH]c2-c2ccncc2)ccc1Cl [L779450] (first compound 0.4 µM, partner dose 0.2 µM) is 94.4%; for `CCCCCCCCc1ccc(CCC(N)(CO)CO)cc1` [fingolimod] + COC(=O)c1sccc1S(=O)(=O)Nc1ccc(Nc2ccccc2)cc1OC [GSK0660] (first compound 2 µM, partner dose 1 µM) it is 151%.
Take `CCN(CC)CCNC(=O)c1c(C)[nH]c(/C=C2\C(=O)Nc3ccc(F)cc32)c1C` [sunitinib] + O=C1NC(=O)/C(=C/c2ccc(-c3ccc(F)cc3O)o2)S1 [AS252424] (first compound 0.4 µM, partner dose 1 µM): the “cleaved PARP positive nuclei fraction” value worked out at 137%.
For `NC1(c2ccc(-c3nc4ccn5c(=O)[nH]nc5c4cc3-c3ccccc3)cc2)CCC1` + CC(C)CCN1c2nc(Nc3cc(F)c(O)c(F)c3)ncc2N(C)C(=O)C1C [BID1870] (first compound 0.4 µM, partner dose 0.2 µM), the “cleaved PARP positive nuclei fraction” value came out at 99.8%.
In the case of `CC(=O)O[C@@]12CO[C@@H]1C[C@H](O)[C@@]1(C)C(=O)[C@H](O)C3=C(C)[C@@H](OC(=O)[C@H](O)[C@@H](NC(=O)OC(C)(C)C)c4ccccc4)C[C@@](O)([C@@H](OC(=O)c4ccccc4)[C@H]21)C3(C)C` [Docetaxel] + CCCCCCCCCCCC1=C(O)C(=O)C=C(O)C1=O [Embelin] (first compound 0.0001 µM, partner dose 1.2 µM), the “cleaved PARP positive nuclei fraction” value was 472%.
For `Cn1cnc2c(F)c(Nc3ccc(Br)cc3Cl)c(C(=O)NOCCO)cc21` [selumetinib] + COc1ccc(COc2ccc(Cc3cnc(N)nc3N)cc2OC)cc1 [GW2580] (first compound 0.015 µM, partner dose 1 µM), the “cleaved PARP positive nuclei fraction” value stood at 130%.
Regarding `C[C@]1(O)C[C@@H](c2nc(-c3ccc4ccc(-c5ccccc5)nc4c3)c3c(N)nccn32)C1` + O=C(O)C(=O)Nc1sc2c(c1C(=O)O)CCNC2 [TCS401] (first compound 0.4 µM, partner dose 1.66667 µM), the “cleaved PARP positive nuclei fraction” value is 179%.
As for `CCN(CC)CCNC(=O)c1c(C)[nH]c(/C=C2\C(=O)Nc3ccc(F)cc32)c1C` [sunitinib] + c1cc(-c2cnn3cc(-c4ccc(OCCN5CCCCC5)cc4)cnc23)ccn1 [Dorsomorphin] (first compound 0.4 µM, partner dose 0.4 µM), the “cleaved PARP positive nuclei fraction” value was found to be 35.5%.
Take `CC1(C)CCC(c2ccc(Cl)cc2)=C(CN2CCN(c3ccc(C(=O)NS(=O)(=O)c4ccc(N[C@H](CCN5CCOCC5)CSc5ccccc5)c(S(=O)(=O)C(F)(F)F)c4)cc3)CC2)C1` + COc1cc(N2CCC(N3CCN(C)CC3)CC2)ccc1Nc1ncc(Cl)c(Nc2ccccc2S(=O)(=O)C(C)C)n1 [NVP-TAE684] (first compound 0.4 µM, partner dose 0.08 µM): the “cleaved PARP positive nuclei fraction” value is 687%.
The figure for `Cn1sc(=O)n(Cc2ccccc2)c1=O` + CCN(CC)CCCCNc1ncc2cc(-c3cc(OC)cc(OC)c3)c(NC(=O)NC(C)(C)C)nc2n1 [PD173074] (first compound 0.4 µM, partner dose 0.1 µM) is 112%; for `CCN(CC)CCNC(=O)c1c(C)[nH]c(/C=C2\C(=O)Nc3ccc(F)cc32)c1C` [sunitinib] + CCCCCCCCCCCC1=C(O)C(=O)C=C(O)C1=O [Embelin] (first compound 0.4 µM, partner dose 1.2 µM) it is 78.8%.
Take `CN(c1ncccc1CNc1nc(Nc2ccc3c(c2)CC(=O)N3)ncc1C(F)(F)F)S(C)(=O)=O` + COc1ccc(-c2ccc3c(N4CCOCC4)nc(N4C[C@@H](C)O[C@@H](C)C4)nc3n2)cc1CO [KU0063794] (first compound 0.08 µM, partner dose 0.02 µM): the “cleaved PARP positive nuclei fraction” value amounted to 267%.
`CCN(CC)CCNC(=O)c1c(C)[nH]c(/C=C2\C(=O)Nc3ccc(F)cc32)c1C` [sunitinib] + CCN(CC)CCCCNc1ncc2cc(-c3cc(OC)cc(OC)c3)c(NC(=O)NC(C)(C)C)nc2n1 [PD173074] (first compound 0.4 µM, partner dose 0.1 µM): the “cleaved PARP positive nuclei fraction” value came out at 110%.
For `Cn1cnc2c(F)c(Nc3ccc(Br)cc3Cl)c(C(=O)NOCCO)cc21` [selumetinib] + O=C(Nc1ccccc1)c1cc([N+](=O)[O-])ccc1Cl [GW9662] (first compound 0.015 µM, partner dose 2 µM) the value was 121%; for `C[C@@H](N)c1ccc(C(=O)Nc2ccnc3[nH]ccc23)cc1` + COc1ccc2c(c1)CCC1C2CCC2(C)C(NCCCCCCN3C(=O)C=CC3=O)CCC12 [U73122] (first compound 0.4 µM, partner dose 0.4 µM), 126%.
For `CC(=O)O[C@@]12CO[C@@H]1C[C@H](O)[C@@]1(C)C(=O)[C@H](O)C3=C(C)[C@@H](OC(=O)[C@H](O)[C@@H](NC(=O)OC(C)(C)C)c4ccccc4)C[C@@](O)([C@@H](OC(=O)c4ccccc4)[C@H]21)C3(C)C` [Docetaxel] + COc1ccc(-c2ccc3c(N4CCOCC4)nc(N4C[C@@H](C)O[C@@H](C)C4)nc3n2)cc1CO [KU0063794] (first compound 0.0001 µM, partner dose 0.02 µM) the value was 602%; for `CS(=O)(=O)c1ccc(C(=O)Nc2ccc(Cl)c(-c3ccccn3)c2)c(Cl)c1` [vismodegib] + COc1cc(N2CCC(N3CCN(C)CC3)CC2)ccc1Nc1ncc(Cl)c(Nc2ccccc2S(=O)(=O)C(C)C)n1 [NVP-TAE684] (first compound 1 µM, partner dose 0.08 µM), 176%.
With `NC(=O)c1ccc(N(C(N)=O)c2c(F)cccc2F)nc1-c1ccc(F)cc1F` + O=C(O)C(=O)Nc1sc2c(c1C(=O)O)CCNC2 [TCS401] (first compound 0.4 µM, partner dose 1.66667 µM), the “cleaved PARP positive nuclei fraction” value came out at 157%.
With `CCN(CC)CCNC(=O)c1c(C)[nH]c(/C=C2\C(=O)Nc3ccc(F)cc32)c1C` [sunitinib] + CC(C)CCN1c2nc(Nc3cc(F)c(O)c(F)c3)ncc2N(C)C(=O)C1C [BID1870] (first compound 0.4 µM, partner dose 0.2 µM), the “cleaved PARP positive nuclei fraction” value was determined as 162%.
